The record followed here is publication PMC11417359.

By UniProt entry, the sequences of proteins in these tests, tags left out.
UniProt Q3TKT4: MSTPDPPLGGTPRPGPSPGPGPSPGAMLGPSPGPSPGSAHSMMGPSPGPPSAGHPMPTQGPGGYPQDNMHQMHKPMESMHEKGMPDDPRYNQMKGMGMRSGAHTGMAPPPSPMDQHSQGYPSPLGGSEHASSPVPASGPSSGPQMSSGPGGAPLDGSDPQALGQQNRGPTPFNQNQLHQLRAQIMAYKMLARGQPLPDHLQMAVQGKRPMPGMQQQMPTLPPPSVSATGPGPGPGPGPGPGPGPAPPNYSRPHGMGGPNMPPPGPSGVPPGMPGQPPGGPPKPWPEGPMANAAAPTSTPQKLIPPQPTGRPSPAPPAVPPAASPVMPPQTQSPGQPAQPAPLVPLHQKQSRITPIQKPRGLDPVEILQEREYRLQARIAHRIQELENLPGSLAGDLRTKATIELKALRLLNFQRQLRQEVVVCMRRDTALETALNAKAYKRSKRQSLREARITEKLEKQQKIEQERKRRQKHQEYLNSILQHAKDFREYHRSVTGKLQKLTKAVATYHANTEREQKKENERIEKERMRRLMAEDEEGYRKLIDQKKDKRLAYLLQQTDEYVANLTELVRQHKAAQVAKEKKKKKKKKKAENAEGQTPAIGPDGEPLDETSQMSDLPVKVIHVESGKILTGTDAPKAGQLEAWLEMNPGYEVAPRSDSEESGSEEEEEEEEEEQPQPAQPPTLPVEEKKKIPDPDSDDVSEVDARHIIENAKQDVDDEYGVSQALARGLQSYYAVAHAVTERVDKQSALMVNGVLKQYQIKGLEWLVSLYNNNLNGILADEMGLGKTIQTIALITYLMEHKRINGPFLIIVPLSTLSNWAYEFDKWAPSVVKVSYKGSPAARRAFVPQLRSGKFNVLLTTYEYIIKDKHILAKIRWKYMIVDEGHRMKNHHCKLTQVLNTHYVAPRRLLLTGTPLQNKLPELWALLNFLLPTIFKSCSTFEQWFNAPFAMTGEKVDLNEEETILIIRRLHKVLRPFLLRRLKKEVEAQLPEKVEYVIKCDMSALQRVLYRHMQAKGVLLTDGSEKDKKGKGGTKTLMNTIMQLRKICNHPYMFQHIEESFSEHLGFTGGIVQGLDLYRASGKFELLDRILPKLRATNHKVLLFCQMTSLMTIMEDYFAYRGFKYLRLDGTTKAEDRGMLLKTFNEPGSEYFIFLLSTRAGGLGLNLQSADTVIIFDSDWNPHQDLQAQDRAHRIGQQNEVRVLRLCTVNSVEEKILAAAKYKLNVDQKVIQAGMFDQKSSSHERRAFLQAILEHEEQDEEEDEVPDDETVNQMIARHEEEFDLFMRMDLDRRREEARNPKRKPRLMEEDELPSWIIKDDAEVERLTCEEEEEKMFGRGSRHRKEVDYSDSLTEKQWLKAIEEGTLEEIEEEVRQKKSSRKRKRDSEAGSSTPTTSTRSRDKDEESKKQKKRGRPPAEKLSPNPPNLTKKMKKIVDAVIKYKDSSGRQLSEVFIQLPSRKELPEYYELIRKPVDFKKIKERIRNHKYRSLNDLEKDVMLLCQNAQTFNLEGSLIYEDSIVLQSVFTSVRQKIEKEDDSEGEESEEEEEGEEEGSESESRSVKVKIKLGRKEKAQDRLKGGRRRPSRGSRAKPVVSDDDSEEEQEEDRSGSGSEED
UniProt Q91ZW3: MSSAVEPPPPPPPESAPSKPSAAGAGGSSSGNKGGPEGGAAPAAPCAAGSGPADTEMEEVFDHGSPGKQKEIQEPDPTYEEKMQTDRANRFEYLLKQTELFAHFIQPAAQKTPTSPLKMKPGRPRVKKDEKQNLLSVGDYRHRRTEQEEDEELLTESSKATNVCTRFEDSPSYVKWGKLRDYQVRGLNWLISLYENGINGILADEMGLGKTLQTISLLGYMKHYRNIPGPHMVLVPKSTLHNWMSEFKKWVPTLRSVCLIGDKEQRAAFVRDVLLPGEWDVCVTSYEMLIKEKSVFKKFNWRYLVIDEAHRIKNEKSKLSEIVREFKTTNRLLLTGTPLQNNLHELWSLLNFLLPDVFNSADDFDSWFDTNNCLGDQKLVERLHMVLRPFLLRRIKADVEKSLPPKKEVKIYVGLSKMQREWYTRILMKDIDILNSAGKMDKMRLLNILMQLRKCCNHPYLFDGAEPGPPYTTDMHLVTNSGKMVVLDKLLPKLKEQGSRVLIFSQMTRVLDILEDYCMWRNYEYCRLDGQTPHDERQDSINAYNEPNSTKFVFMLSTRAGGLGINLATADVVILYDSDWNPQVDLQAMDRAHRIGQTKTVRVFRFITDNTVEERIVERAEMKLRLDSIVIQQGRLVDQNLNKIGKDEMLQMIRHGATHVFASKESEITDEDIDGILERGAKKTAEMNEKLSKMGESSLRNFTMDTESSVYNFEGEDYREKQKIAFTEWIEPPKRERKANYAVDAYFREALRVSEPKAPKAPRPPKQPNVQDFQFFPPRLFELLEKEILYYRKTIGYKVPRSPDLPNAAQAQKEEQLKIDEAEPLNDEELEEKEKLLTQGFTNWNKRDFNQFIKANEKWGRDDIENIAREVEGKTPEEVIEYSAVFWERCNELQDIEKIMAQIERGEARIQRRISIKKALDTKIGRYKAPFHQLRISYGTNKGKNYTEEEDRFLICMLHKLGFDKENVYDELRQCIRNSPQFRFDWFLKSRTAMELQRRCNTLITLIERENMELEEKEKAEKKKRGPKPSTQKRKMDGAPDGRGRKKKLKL
UniProt O54941: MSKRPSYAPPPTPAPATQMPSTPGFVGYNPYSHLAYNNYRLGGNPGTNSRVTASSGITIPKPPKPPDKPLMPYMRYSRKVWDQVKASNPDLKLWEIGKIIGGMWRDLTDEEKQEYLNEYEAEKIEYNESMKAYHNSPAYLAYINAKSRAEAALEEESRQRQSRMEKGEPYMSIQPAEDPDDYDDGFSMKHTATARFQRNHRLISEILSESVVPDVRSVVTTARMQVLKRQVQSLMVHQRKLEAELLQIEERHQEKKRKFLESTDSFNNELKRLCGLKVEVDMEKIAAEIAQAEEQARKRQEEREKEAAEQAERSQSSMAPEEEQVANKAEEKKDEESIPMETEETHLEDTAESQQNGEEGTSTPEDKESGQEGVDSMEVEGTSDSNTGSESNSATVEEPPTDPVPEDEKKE

For this experiment, the target named is T1, HSF5 (fifth member of the heat shock factor family) (mouse (endogenous in testis)) (UniProt Q5ND04).
T1 sequence: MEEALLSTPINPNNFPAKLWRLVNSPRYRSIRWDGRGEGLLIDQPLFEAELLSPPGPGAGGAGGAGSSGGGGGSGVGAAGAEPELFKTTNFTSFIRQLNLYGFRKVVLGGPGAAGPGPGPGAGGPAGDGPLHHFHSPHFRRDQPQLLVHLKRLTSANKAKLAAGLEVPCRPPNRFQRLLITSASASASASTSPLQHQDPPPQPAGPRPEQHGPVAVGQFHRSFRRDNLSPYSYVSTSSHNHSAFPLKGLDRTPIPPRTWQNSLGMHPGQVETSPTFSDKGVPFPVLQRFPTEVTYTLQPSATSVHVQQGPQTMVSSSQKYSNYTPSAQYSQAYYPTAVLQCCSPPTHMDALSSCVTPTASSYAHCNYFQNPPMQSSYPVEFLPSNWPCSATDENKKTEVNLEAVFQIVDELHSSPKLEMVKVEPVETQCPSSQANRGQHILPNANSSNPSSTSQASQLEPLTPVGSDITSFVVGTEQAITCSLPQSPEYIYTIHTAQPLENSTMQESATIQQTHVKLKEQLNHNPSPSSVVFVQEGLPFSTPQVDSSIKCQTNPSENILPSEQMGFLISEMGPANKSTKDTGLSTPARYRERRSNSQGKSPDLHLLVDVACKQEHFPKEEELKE
Description: affinity purification with mass spectrometry; co-IP/MS: Hsf5+/+ and Hsf5-/- testis lysates (20 mM Tris-Cl pH 7.4, 150 mM NaCl, 1% NP-40, 0.25% sodium deoxycholate), HSF5 antibodies overnight, protein A/G beads, five washes with 500 mM NaCl wash buffer; eluates analysed by DDA mass spectrometry.

These are yes or no findings as the source states them, for the method shown. Binding seen in cells or lysates may run through a third protein. These calls come from enrichment with a bait or labelling near it, and not all partners need be listed.

With SMARCA4 (from UniProt Q3TKT4 1-1613), the binding result is “binds”.
For SMARCA5 (from UniProt Q91ZW3 1-1051), the binding result is recorded as “binds”.
The value for SMARCE1 (from UniProt O54941 1-411) was “binds”.
